# Measured values: PubChem BioAssay AID1733 (National Center for Advancing Translational Sciences (NCATS), 2009)
# By UniProt entry, the sequences of proteins in these tests, tags left out.
# UniProt P08659, whole entry, looked up: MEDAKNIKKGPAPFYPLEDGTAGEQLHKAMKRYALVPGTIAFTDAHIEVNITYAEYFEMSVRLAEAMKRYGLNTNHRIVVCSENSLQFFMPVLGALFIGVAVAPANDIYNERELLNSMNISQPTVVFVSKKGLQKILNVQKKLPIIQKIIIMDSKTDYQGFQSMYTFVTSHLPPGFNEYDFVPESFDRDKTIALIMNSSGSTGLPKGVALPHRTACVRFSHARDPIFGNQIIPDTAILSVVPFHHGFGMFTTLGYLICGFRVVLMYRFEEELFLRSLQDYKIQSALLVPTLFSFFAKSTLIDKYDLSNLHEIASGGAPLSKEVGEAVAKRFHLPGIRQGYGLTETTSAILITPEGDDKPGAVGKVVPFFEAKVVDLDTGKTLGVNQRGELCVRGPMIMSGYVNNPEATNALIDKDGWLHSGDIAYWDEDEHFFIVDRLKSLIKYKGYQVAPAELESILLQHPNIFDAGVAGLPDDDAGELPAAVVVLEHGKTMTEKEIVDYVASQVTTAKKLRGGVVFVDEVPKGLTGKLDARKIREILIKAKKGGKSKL
# Inconclusive results, whose numbers are uncertain, are shown. Potencies of inconclusive entries are doubtful fits and often do not repeat.
# Biological target: Luciferin 4-monooxygenase (Photinus pyralis) (UniProt P08659)
# Test: Counterscreen Assay for Enhancers of SMN2 Splice Variant Expression: Interaction with Luciferase Reporter
# Details: purified firefly luciferase, luminescence, 5 min; active = well fitted inhibition curve with a large enough effect; inconclusive = small, poorly fitted or top-dose-only effect; inactive = flat fitted curve, though single readings scatter
# Source text: NIH Chemical Genomics Center [NCGC] NIH Molecular Libraries Probe Production centers Network [MLPCN] MLPCN Grant: R03 MH084179-01 Assay Submitter (PI): Elliot Androphy NCGC Assay Overview: Spinal muscular atrophy (SMA) is caused by insufficient levels of the survival motor neuron protein SMN. The SMN locus on chromosome 5q13 contains two inverted copies of SMN called SMN1 and SMN2 which are 99% identical at the amino acid level. SMN1 is a fully functional protein and SMN2 skips exon 7 90% of the time. Skipping of exon 7 produces non-functional protein product. 10% of the SMN2 protein includes exon 7 and is fully functional. In the SMA disease state, mutations in the SMN1 locus are the cause of the disease state. […]
# NCGC Assay Protocol Summary: The primary screen utilizes a luciferase reporter gene assay, combining the promoter and splicing based cassettes in tandem with the major portion of the native SMN1 cDNA, and then transfected into HEK293 cells. […] Sequence, Parameter, Value, Description (1) Reagent, 2.5 uL, Enzyme in buffer (note A) (2) Compound, 23 nL, From stock solutions (3) Time, 5 minutes, Room temp (4) Reagent#2.5 ul, Luciferase detection reagent (note B) (5) Detector, 1 sec integrate, Luminescent read on Viewlux (note C) Sigma enzyme (1 mg) considered to be MW 61,000 diluted in 357 ul assay buffer to 50 uM stock. […]
smiles,measurement,value
CCc1ccc2nc(N3CCC(C(=O)N4CCC5(CC4)OCCO5)CC3)sc2c1,Potency,"inconclusive: 28.2 µM [inhibitor, partial curve, poor fit]"
